Our source for the binding values is publication PMC7895384.

The chains behind the UniProt entries cited, without tags or fusion partners. Where a name states a change or a piece, a line headed by the entry shows the natural chain unless it says otherwise.
UniProt P51023: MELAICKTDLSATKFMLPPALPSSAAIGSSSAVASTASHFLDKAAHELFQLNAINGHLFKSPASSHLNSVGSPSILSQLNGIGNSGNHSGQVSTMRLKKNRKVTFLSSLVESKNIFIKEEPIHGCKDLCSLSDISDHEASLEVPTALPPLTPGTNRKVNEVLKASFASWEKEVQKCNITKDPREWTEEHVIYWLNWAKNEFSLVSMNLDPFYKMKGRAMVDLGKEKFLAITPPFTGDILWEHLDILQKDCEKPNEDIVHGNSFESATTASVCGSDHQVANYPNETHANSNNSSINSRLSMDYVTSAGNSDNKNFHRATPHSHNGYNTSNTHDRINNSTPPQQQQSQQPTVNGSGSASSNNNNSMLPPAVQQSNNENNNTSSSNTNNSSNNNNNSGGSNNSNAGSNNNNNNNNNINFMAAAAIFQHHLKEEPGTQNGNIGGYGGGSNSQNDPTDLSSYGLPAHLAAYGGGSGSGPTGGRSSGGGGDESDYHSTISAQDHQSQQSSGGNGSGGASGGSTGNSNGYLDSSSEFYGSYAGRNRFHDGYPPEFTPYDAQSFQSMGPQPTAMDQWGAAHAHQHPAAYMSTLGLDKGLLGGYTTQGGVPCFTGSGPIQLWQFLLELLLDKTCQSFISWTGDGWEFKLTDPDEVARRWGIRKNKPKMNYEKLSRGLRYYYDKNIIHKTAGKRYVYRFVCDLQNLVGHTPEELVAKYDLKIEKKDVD
UniProt Q9VQ56: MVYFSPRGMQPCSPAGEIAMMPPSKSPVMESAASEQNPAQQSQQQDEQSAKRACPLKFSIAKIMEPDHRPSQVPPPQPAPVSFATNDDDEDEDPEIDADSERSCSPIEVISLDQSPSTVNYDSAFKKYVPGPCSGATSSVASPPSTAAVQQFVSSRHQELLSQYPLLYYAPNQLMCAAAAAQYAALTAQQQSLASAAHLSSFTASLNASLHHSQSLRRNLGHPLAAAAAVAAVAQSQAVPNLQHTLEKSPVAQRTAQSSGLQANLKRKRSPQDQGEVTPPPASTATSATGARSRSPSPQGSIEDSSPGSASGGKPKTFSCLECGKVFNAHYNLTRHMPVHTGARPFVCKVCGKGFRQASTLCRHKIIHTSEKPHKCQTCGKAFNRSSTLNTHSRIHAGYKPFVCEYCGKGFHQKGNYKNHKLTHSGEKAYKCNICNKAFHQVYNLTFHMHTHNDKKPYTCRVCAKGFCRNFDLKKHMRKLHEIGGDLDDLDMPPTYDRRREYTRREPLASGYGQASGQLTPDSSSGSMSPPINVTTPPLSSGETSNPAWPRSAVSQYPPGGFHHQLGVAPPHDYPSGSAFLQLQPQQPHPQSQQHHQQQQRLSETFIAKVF

Experiment [1] has as its target Flag-PntP1 (Flag-tagged Pointed P1) (Drosophila) (UniProt P51023). Briefly: co-IP; two tagged proteins co-expressed in Drosophila S2 cells; 1% NP-40 lysis buffer (50 mM Tris-Cl, pH 8.0, 150 mM NaCl); IP overnight at 4°C with anti-HA, anti-Myc or anti-Flag antibody, protein A/G agarose beads; Western blot.
For experiment [2] the target is unchanged. Briefly: co-IP; two of the three tagged proteins co-expressed in S2 cells; graded concentrations (150mM to 1200mM) of NaCl in the 1% NP-40 lysis buffer (S7C-E Fig; lanes with two proteins of S7F Fig, % co-IP quantified from band intensities, n = 3).

No constants are given. Whether binding was seen depends on the method and setting. Binding seen in cells or lysates may run through a third protein. A result given as binding can be weak or reduced; the word gives no strength.

“Myc-Erm (Myc-tagged Earmuff) (from UniProt Q9VQ56 1-611)”: the binding result in experiment [1] and in experiment [2] was “binds” throughout.
